Consider one molecule from paper doi:10.1101/2021.02.19.432017 (bioRxiv, 2021).

These are yes or no findings as the source states them, for the method shown.

The target in the experiment is GST-fused Raf-1 CR1 domain (RBD and CRD) (mouse) (UniProt Q99N57). Briefly: BLI.

B1: Ras suppressor-1 (Rsu-1), wild type (natural protein)
chain: MSKSLKKLVEESREKNQPEVDMSDRGISNMLDVNGLFTLSHITQLVLSHNKLTMVPPNIAELKNLEVLNFFNNQIEELPTQISSLQKLKHLNLGMNRLNTLPRGFGSLPALEVLDLTYNNLSENSLPGNFFYLTTLRALYLSDNDFEILPPDIGKLTKLQILSLRDNDLISLPKEIGELTQLKELHIQGNRLTVLPPELGNLDLTGQKQVFKAENNPWVTPIADQFQLGVSHVFEYIRSETYKYLYGRHMQANPEPPKKNNDKSKKISRKPLAAKNR
For B1, the binding entry is reported as “no binding”.
